Results on one molecule are retold here after PMC5550010.

Sequences of proteins named here, by UniProt entry; tags and fusion partners are left off.
UniProt Q92922: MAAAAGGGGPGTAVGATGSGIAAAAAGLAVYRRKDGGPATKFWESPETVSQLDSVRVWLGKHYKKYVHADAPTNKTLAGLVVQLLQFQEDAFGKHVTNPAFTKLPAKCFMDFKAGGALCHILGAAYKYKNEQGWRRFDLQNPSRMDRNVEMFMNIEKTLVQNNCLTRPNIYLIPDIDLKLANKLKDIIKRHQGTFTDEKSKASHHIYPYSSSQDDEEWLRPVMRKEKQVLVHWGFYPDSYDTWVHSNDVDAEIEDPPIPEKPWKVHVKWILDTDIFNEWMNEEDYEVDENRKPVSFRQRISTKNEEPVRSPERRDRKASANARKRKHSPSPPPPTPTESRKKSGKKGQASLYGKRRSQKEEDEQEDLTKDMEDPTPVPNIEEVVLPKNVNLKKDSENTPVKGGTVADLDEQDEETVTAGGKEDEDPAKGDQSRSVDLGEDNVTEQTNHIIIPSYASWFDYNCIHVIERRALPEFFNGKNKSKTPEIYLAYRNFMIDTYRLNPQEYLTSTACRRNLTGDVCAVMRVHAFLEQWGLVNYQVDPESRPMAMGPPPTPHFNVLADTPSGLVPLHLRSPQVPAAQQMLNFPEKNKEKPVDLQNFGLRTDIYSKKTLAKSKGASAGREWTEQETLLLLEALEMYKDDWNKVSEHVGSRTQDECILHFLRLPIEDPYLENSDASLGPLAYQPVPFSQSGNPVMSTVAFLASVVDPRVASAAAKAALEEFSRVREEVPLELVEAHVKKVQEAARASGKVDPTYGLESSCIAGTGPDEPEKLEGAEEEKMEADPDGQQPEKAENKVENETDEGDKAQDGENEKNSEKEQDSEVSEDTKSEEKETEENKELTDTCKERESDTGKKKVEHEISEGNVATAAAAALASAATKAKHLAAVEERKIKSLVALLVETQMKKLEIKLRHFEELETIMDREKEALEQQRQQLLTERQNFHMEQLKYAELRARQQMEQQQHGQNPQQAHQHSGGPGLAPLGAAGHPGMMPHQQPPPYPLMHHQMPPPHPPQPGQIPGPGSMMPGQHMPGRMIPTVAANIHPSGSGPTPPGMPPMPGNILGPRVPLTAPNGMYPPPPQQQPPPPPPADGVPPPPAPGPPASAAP

These are yes or no findings as the source states them, for the method shown. In cells and extracts the contact can be indirect. Some results given as binding are weak or reduced against the parent protein; the word gives no strength. Where a sequence is shown, tags or fusion partners need not be part of it.

The experiment concerns the target SMARCC1 (SWI/SNF related, matrix associated, actin dependent regulator or chromatin subfamily c, member 1) (human (endogenous in HEK 293T)) (UniProt Q92922). The experiment is described as follows: co-IP; HEK 293T cells transfected with myc-BBS6, fractionated into cytoplasm and nucleus; IP of each fraction with SMARCC1 antibody; western blot probed for myc-BBS6. For orientation: A western blot detects proteins with antibodies after separation by electrophoresis.

B1: myc-tagged human BBS6 expressed in HEK 293T cells (protein, UniProt Q9NPJ1 1-570)
chain: MSRLEAKKPSLCKSEPLTTERVRTTLSVLKRIVTSCYGPSGRLKQLHNGFGGYVCTTSQSSALLSHLLVTHPILKILTASIQNHVSSFSDCGLFTAILCCNLIENVQRLGLTPTTVIRLNKHLLSLCISYLKSETCGCRIPVDFSSTQILLCLVRSILTSKPACMLTRKETEHVSALILRAFLLTIPENAEGHIILGKSLIVPLKGQRVIDSTVLPGILIEMSEVQLMRLLPIKKSTALKVALFCTTLSGDTSDTGEGTVVVSYGVSLENAVLDQLLNLGRQLISDHVDLVLCQKVIHPSLKQFLNMHRIIAIDRIGVTLMEPLTKMTGTQPIGSLGSICPNSYGSVKDVCTAKFGSKHFFHLIPNEATICSLLLCNRNDTAWDELKLTCQTALHVLQLTLKEPWALLGGGCTETHLAAYIRHKTHNDPESILKDDECTQTELQLIAEAFCSALESVVGSLEHDGGEILTDMKYGHLWSVQADSPCVANWPDLLSQCGCGLYNSQEELNWSFLRSTRRPFVPQSCLPHEAVGSASNLTLDCLTAKLSGLQVAVETANLILDLSYVIEDKN
Turning to B1, the binding entry is reported as “binds”.
